Reference: PubChem BioAssay AID504847 (National Center for Advancing Translational Sciences (NCATS), 2011)
The campaign covered roughly 400,000 compounds. About 3,700 (0.93%) were called active. This list was built around the results that the source calls inconclusive (neither active nor inactive); the mix of calls is not that of the screen. Calls follow the shape of the dose curve; as a rule, active = well fitted inhibition curve with a large enough effect; inconclusive = small, poorly fitted or top-dose-only effect, or another doubt; inactive = no such curve, though single readings can be large or run the other way. Where the call is inconclusive, the potency comes from a doubtful curve fit.

Amino acid sequences for entries named in this document (tags omitted).
UniProt P11473, whole entry, looked up: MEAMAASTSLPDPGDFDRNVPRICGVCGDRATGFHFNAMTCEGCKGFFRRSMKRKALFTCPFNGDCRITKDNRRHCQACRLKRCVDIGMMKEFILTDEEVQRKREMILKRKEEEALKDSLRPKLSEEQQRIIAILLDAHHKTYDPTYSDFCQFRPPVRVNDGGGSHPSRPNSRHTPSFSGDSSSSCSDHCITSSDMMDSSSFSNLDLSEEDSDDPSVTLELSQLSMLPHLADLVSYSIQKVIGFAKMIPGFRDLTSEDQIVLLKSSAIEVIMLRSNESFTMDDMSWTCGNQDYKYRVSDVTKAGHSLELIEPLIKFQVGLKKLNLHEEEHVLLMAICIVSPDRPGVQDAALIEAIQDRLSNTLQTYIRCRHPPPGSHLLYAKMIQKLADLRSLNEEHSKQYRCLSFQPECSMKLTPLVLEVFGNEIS

Each compound was assayed against Vitamin D3 receptor (Homo sapiens) (UniProt P11473) (assay: Inhibitors of the vitamin D receptor (VDR): qHTS). Details: VDR-SRC2-3 peptide fluorescence polarization, 2 h; max response, negative = inhibition: stronger effect = lower value.
In short: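 The screen uses fluorescence polarization to detect compounds that interfere with recruitment of the SRC2-3 coactivator peptide to VDR; plates are read after 2 h at room temperature.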
% is scaled to controls: 0 for no effect and ±100 for the full control effect; potency is read from the fitted curve at half-maximal effect.

Row | SMILES | Potency | max response, negative = inhibition
1 | COc1cc(-c2csc(CCn3nc(C)cc3C)n2)cc(OC)c1OC | inconclusive: 89.1 µM [inhibitor, single point] | –
2 | S=c1[nH]nc(COc2ccccc2)n1/N=C/c1ccc(Cl)cc1 | inconclusive: 50.1 µM [inhibitor, partial curve, poor fit] | –
3 | Cc1ccc2c(c1)sc[n+]2Cc1ccccc1 | active: 25.1 µM | –
4 | COc1ccc(/C=C/C(=O)c2ccc(OC)cc2OC)cc1 | inconclusive: 22.4 µM [inhibitor, partial curve] | –
5 | CN(Cc1ccco1)c1ncncc1-c1cccc(C#N)c1 | inconclusive: 35.5 µM [inhibitor, full curve] | –
6 | O=C(Nc1cccnc1)c1cc(Br)c(Br)s1 | – | inactive: -7.75%
7 | Brc1ccc(CN2CCN(c3ccccn3)CC2)s1 | – | inactive: 1.15%
8 | CCOc1cc(C2C(C#N)=C(N)SC(N)=C2C#N)ccc1OCCN1CCOCC1 | inconclusive: 63.1 µM [inhibitor, partial curve, poor fit] | –
9 | Cc1nn(-c2ccccc2)c(N)c1Sc1ccccc1[N+](=O)[O-] | – | inactive: -21.8%
10 | O=C(COc1ccc(F)cc1F)N1CCCCCCC1 | inconclusive: 100 µM [inhibitor, single point] | –
11 | COc1ccc(COc2cc(-c3cccc(OC)c3)nc3ccc(NC(=O)c4ccc(C)cc4)cc23)cc1 | inconclusive: 44.7 µM [inhibitor, partial curve, poor fit] | –
12 | CCCCCC(=O)Nc1cc(S(=O)(=O)O)cc2cc(S(=O)(=O)O)cc(O)c12 | inconclusive: 56.2 µM [inhibitor, partial curve, poor fit] | –
13 | C/C(=N/NC(=O)CN(c1ccccc1)S(=O)(=O)c1ccccc1)c1ccccc1O | inconclusive: 56.2 µM [inhibitor, partial curve, poor fit] | –
14 | COc1ccc(OC)c2sc(N3CCN(C(=O)c4ccc([N+](=O)[O-])s4)CC3)nc12 | – | inactive: -6.11%
15 | Cc1c(NC(=O)c2cc(-n3cnnc3)ccc2Cl)cccc1-c1nc2ccccc2o1 | – | inactive: -4.44%
16 | O=C1C(Cl)=C(N2CCOCC2)C(=O)N1c1ccc(Br)cc1 | inconclusive: 25.1 µM [inhibitor, full curve, poor fit] | –
17 | COCC(=O)N1CCC2(CC1)CCN(c1cccc(-c3ccccc3)c1)CC2 | inconclusive: 89.1 µM [inhibitor, single point] | –
18 | O=C(CSc1nnc(Cc2cccs2)n1Cc1ccco1)Nc1ccc(Br)cc1 | – | inactive: -6.27%
19 | CCOC(=O)N1CCN(Cc2c(O)ccc3ccccc23)CC1 | inconclusive: 15.8 µM [inhibitor, full curve, poor fit] | –
20 | Cc1ccc(C(=O)CSc2n[nH]c(C)n2)cc1 | inconclusive: 89.1 µM [inhibitor, partial curve, poor fit] | –
21 | COc1cc(C2N=C(N)Nc3nc4ccccc4n32)ccc1OCC(=O)O (stereo not given) | inconclusive: 100 µM [inhibitor, single point] | –
22 | S=C(NCc1ccco1)Nc1cc(-c2ccccc2)[nH]n1 | – | inactive: 12.6%

Row | SMILES | Potency | max response, negative = inhibition
23 | Cn1cc(SCC(=O)NC2CCCCC2)c2ccccc21 | inconclusive: 89.1 µM [inhibitor, single point] | –
24 | c1ccc2c(C[n+]3csc4ccccc43)cccc2c1 | active: 44.7 µM | –
25 | O=C(O)c1ccc(CN(Cc2ccccc2)S(=O)(=O)c2ccc(Cl)cc2)cc1 | inconclusive: 50.1 µM [inhibitor, partial curve] | –
26 | CCOc1ccc(NC(C)=O)cc1 | inconclusive: 100 µM [inhibitor, partial curve, poor fit] | –
27 | Cc1c(N2C(=O)/C(=C3\C(=O)N(CC(=O)O)c4ccccc43)SC2=S)c(=O)n(-c2ccccc2)n1C | inconclusive: 79.4 µM [inhibitor, single point] | –
28 | Cc1ccc(NC(=O)[C@H](NC(=O)[C@@H]2Cc3ccccc3CN2)c2ccccc2)c(C)c1 | – | inactive: -3.75%
29 | CC1=NOC(=O)/C1=C\c1ccc(-c2ccc(Br)cc2)o1 | inconclusive: 17.8 µM [inhibitor, full curve, poor fit] | –
30 | O=C1ON=C(c2ccccc2)/C1=C/c1ccc(OS(=O)(=O)c2ccccc2)cc1 | inconclusive: 28.2 µM [inhibitor, partial curve, poor fit] | –
31 | CCOC(=O)c1ccc(NC(=O)Cn2c(-c3nonc3N)nc3ccccc32)cc1 | inconclusive: 17.8 µM [inhibitor, partial curve, poor fit] | –
32 | O=C1c2cccc3cccc(c23)C(=O)N1CC1CCN(CC(O)COc2ccc3ccccc3c2)CC1 (stereo not given) | – | inactive: -4.97%
33 | COc1cccc2c1C(=O)c1c(O)c3c(c(O)c1C2=O)C[C@](O)(C(=O)CO)C[C@@H]3O[C@H]1C[C@H](N)[C@@H](O)[C@H](C)O1 | – | inactive: 5.21%
34 | Nc1nc(=O)c2ccccc2s1 | inconclusive: 79.4 µM [inhibitor, single point] | –
35 | Cc1ccc(C(C)C)c(OCCCNCc2cccnc2)c1 | – | inactive: 11.4%
36 | Cc1ccc2c(c1)NC(=O)C(CC(=O)NCCCN1CCCC1=O)O2 (stereo not given) | inconclusive: 89.1 µM [inhibitor, single point] | –
37 | CCOc1ccc(CCNC(=O)Cc2ccc(S(=O)(=O)N3CCOCC3)s2)cc1OCC | inconclusive: 56.2 µM [inhibitor, partial curve, poor fit] | –
38 | CC(=O)Nc1ccc(S(=O)(=O)N2CCN(C(=O)Cc3ccccc3)CC2)cc1 | inconclusive: 56.2 µM [inhibitor, partial curve, poor fit] | –
39 | C=CCOc1ccc(C=NNc2ccc(S(=O)(=O)Nc3ccccc3C(=O)O)cc2[N+](=O)[O-])cc1OC | inconclusive: 63.1 µM [inhibitor, partial curve, poor fit] | –
40 | CC1(OC(=O)c2cccs2)C(=O)C=C2C=C(c3ccc(C#N)cc3)OC=C2C1=O (stereo not given) | inconclusive: 31.6 µM [inhibitor, partial curve] | –
41 | COC(=O)Cc1sc(-c2ccccn2)nc1-c1ccccc1 | active: 25.1 µM | –
42 | COC(=O)CN1CCC(=O)c2ccccc2S1(=O)=O | – | inactive: -21%
43 | COc1ccc2nc(N(CCN(C)C)C(=O)c3ccc4c(c3)OCCO4)sc2c1 | – | inactive: 1.22%
44 | NCCC[C@@H](CC(=O)N[C@@H]1CCNC[C@H]1C(=O)N[C@H](CC(=O)N[C@@H](CCC(=O)O)CC(=O)O)Cc1ccccc1)NC(=O)C[C@H](CO)NC(=O)[C@@H]1CCCC[C@H]1N | – | inactive: 5.27%

Row | SMILES | Potency | max response, negative = inhibition
45 | COc1ccc(Nc2nc(NCC3CCCO3)c3ccccc3n2)c(OC)c1 (stereo not given) | – | inactive: 11.5%
46 | Cc1cc(C)cc(OCC(=O)Nc2nc(-c3cccnc3)cs2)c1 | inconclusive: 79.4 µM [inhibitor, partial curve, poor fit] | –
47 | Cc1ccc(C(=O)Nc2ccccc2C(=O)O)cc1S(=O)(=O)Nc1ccccc1 | inconclusive: 44.7 µM [inhibitor, partial curve, poor fit] | –
48 | CN(C(=O)COC(=O)/C=C/c1ccc2ccccc2n1)c1c(N)n(Cc2ccccc2)c(=O)[nH]c1=O | inconclusive: 79.4 µM [inhibitor, partial curve, poor fit] | –
49 | Cc1cc(C)c(C(=O)N2CCCC(Nc3ccc(C)c(C)c3)C2)o1 (stereo not given) | inconclusive: 100 µM [inhibitor, single point] | –
50 | CC(=O)c1cc(NC(=O)c2ccc(C)cc2)c(=O)oc1C | inconclusive: 39.8 µM [inhibitor, single point] | –
51 | CC(=O)n1c2ccccc2c2nc(NC(C)C)sc21 | inconclusive: 20 µM [inhibitor, full curve, poor fit] | –
52 | Cc1cc(C)n(CC(=O)NNC(=O)CCNC(=O)c2ccccc2Cl)n1 | inconclusive: 79.4 µM [inhibitor, single point] | –
53 | COc1ccccc1-c1ccc2ncnc(NCc3ccccc3)c2c1 | inconclusive: 50.1 µM [inhibitor, partial curve] | –
54 | C=CCNC(=S)Nc1cccc([N+](=O)[O-])c1 | inconclusive: 0.631 µM [inhibitor, full curve, poor fit] | –
55 | Cc1ccc(Nc2cc(C)c(O)c(C)c2)cc1 | active: 25.1 µM | –
56 | COc1cc(SSc2cc(OC)cc([N+](=O)[O-])c2N)c(N)c([N+](=O)[O-])c1 | active: 7.94 µM | –
57 | CCOC(=O)Cn1c(=O)cc(C)c2ccccc21 | inconclusive: 22.4 µM [inhibitor, partial curve, poor fit] | –
58 | N#Cc1ccc2c(c1)NC(=O)C1CCCN21 (stereo not given) | – | inactive: -8.16%
59 | CCOc1ccc2nc(Nc3nc4ccc(NC(C)=O)cc4s3)sc2c1 | inconclusive: 39.8 µM [inhibitor, single point] | –
60 | COc1ccc(S(=O)(=O)NC(C)CCc2ccccc2)cc1 (stereo not given) | inconclusive: 56.2 µM [inhibitor, partial curve, poor fit] | –
61 | CCOC(=O)C1CCCCN1C(=O)c1cc2ccc(OC)cc2c2cc(OC)c(OC)cc12 (stereo not given) | – | inactive: -13.4%
62 | O=C(O)c1ccc(-n2nc(C(F)(F)F)c3c2-c2ccoc2CC3)cc1 | inconclusive: 79.4 µM [inhibitor, partial curve] | –
63 | COc1cccc(Cn2c(=O)cnc3cncnc32)c1 | inconclusive: 89.1 µM [inhibitor, partial curve, poor fit] | –
64 | O=C(CSc1nccc(=O)[nH]1)c1ccccc1Br | inconclusive: 50.1 µM [inhibitor, partial curve, poor fit] | –
65 | Cc1c(Cl)cccc1NC(=S)Nc1ccc(S(=O)(=O)Nc2ncccn2)cc1 | – | inactive: -20.7%

Given in CSV form: part of the list above.
Row,SMILES,Potency,"max response, negative = inhibition"
53,COc1ccccc1-c1ccc2ncnc(NCc3ccccc3)c2c1,"inconclusive: 50.1 µM [inhibitor, partial curve]",–
54,C=CCNC(=S)Nc1cccc([N+](=O)[O-])c1,"inconclusive: 0.631 µM [inhibitor, full curve, poor fit]",–
55,Cc1ccc(Nc2cc(C)c(O)c(C)c2)cc1,active: 25.1 µM,–
56,COc1cc(SSc2cc(OC)cc([N+](=O)[O-])c2N)c(N)c([N+](=O)[O-])c1,active: 7.94 µM,–
57,CCOC(=O)Cn1c(=O)cc(C)c2ccccc21,"inconclusive: 22.4 µM [inhibitor, partial curve, poor fit]",–
